This is one part of the list. These are further read-outs of the screen, such as a control signal, another cell line or another target. No call is given for them. The list favours compounds with an active or inconclusive main result. Words in brackets tell the shape of the fitted curve; partial curves, single points and poor fits give uncertain potencies.
Experiment: qHTS Assay for Lipid Storage Modulators in Drosophila S3 Cells;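 on cell number change: cells counted by Cell Tracker Red CMTPX staining in the red channel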
Settings: BODIPY lipid droplet fluorescence, 18-24 h; for cell number change: measured here: cell count max response, cells fed with added oleic acid
Summary of the method: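 Drosophila S3 cells loaded with oleic acid (400 uM, as added) and compounds at several concentrations; lipid droplets imaged by 488-nm laser-scanning cytometry, 500–530 nm intensity and object ratio to cell channel. Percent activity normalized to 20 uM Triacsin C.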

[1] = measured here: lipid fluorescence (Fed channel) AC50, cells fed with added oleic acid
[2] = measured here: cell number channel AC50, cells fed with added oleic acid

SMILES | AC50 [1] | cell number change [%] | AC50 [2]
COc1cccc(NC(=O)COC(=O)CCCC2=NS(=O)(=O)c3ccccc3N2)c1 | 29.1 µM [rising, single point] | – | –
O=C(NCC1(c2ccccc2)CCCC1)c1ccco1 | 29.1 µM [rising, single point] | 14.2 | –
COc1ccc(OC)c(N(C(=O)c2ccco2)C(C(=O)NC2CCCC2)c2cc(OC)c(OC)c(OC)c2)c1 (stereo not drawn) | – | -1.25 | –
CCOC(=O)C1CCN(C(=S)NC2CCCC2)CC1 | – | 11.3 | 0.92 µM [falling, full curve, poor fit]
FC(F)(F)c1ccc(Cl)c(NC(=S)N/N=C/c2ccccc2C(F)(F)F)c1 | 1.16 µM [rising, full curve, poor fit] | 1.1 | –
CCOC(=O)CC(NS(=O)(=O)c1ccc2[nH]cc(C(=O)O)c(=O)c2c1)c1ccc(OCC)c(OC)c1 (stereo not drawn) | – | 10 | –
Cn1nc(C(=O)Nc2cccc(S(=O)(=O)N3CCCC3)c2)c2ccccc2c1=O | 0.326 µM [rising, partial curve, poor fit] | -12.4 | –
COc1ccc(N2C(=O)C(CC(=O)Nc3ccc(F)cc3)N(CCc3cccs3)C2=O)cc1 (stereo not drawn) | 29.1 µM [rising, single point] | 23.3 | –
Cc1ccc(C(=O)CCC(=O)NN2C(=O)NC3(CCCCC3)C2=O)cc1 | 0.58 µM [falling, full curve] | -22.1 | –
Cc1noc(C)c1C(=O)N1CCC(CO)(Cc2ccccc2)CC1 | 16.4 µM [falling, partial curve, poor fit] | -22.3 | –
CC1CCCN(S(=O)(=O)c2ccc(NC(=O)Cn3nnc(-c4ccccc4F)n3)cc2)C1 (stereo not drawn) | 32.6 µM [falling, single point] | -13.3 | –
CN(C(=O)COC(=O)C1CCN(S(=O)(=O)c2ccc3c(c2)OCCO3)CC1)c1ccccc1 | 29.1 µM [falling, partial curve, poor fit] | 25 | –
COc1ccc(/C=C/C(=O)N2CCC(c3ccccc3)C2)cc1 (stereo not drawn) | 2.31 µM [rising, single point] | 31.2 | 8.2 µM [rising, partial curve]
Cn1nccc1C(=O)Nc1cccc(S(=O)(=O)N2CCOCC2)c1 | 3.26 µM [falling, single point] | -7.04 | –
CC(=O)N(C)Cc1ccc(C(=O)CCl)cc1 | – | 10.3 | 3.66 µM [rising, single point]
O=C(CN(C(=O)c1csnn1)c1ccccc1)NCc1ccc2c(c1)OCO2 | – | 13.2 | 1.46 µM [rising, full curve]
CCCCN(C(=O)C1CC1)C1CCS(=O)(=O)C1 (stereo not drawn) | – | – | 2.91 µM [falling, single point]
CCC(C)NC(=O)C1CCN(S(=O)(=O)c2ccc(-n3cnnn3)cc2)CC1 (stereo not drawn) | 0.891 µM [rising, partial curve] | 15.8 | –
Cn1c(=O)c2c(ncn2CC(=O)N2CCN(S(=O)(=O)c3ccc(F)cc3)CC2)n(C)c1=O | – | 0.871 | –
COc1cc(C(=O)Nc2cccc(-n3cnnn3)c2)cc(OC)c1OC | 2.59 µM [rising, partial curve] | -53.3 | –
CC1CCN(C(=O)c2cc3c(ccc4ccccc43)o2)CC1 | 0.58 µM [falling, single point] | – | –

SMILES | AC50 [1] | cell number change [%] | AC50 [2]
Cc1cc2cc(CNC(=O)c3cc4ccccc4o3)ccc2n1C | 0.731 µM [rising, single point] | 20.6 | –
COc1ccccc1C#Cc1ccc2c(=O)c3ccccc3n(C)c2c1 | 6.51 µM [falling, single point] | -18 | –
N#CC1=C(N)C(C#N)(C#N)[C@H](c2ccsc2)[C@H]2COCC=C12 | 0.411 µM [falling, single point] | – | –
COc1ccc(-c2ccc(SCC(=O)N3CCOCC3)nn2)cc1 | – | -17.9 | –
C/C(=N\NC(=O)c1ccc(Cl)c(S(=O)(=O)Nc2ccccc2Cl)c1)c1ccncc1 | 0.0731 µM [rising, full curve, poor fit] | -2.1 | 3.26 µM [rising, single point]
N#Cc1ccccc1NC(=O)CN(Cc1ccccc1)Cc1ccccc1 | – | -3.42 | –
COCCN(C(=O)c1cc(S(=O)(=O)N2CCCCC2)ccc1Cl)c1c(N)n(CC(C)C)c(=O)[nH]c1=O | 29.1 µM [rising, single point] | -17.4 | –
COc1cc(NC(=O)c2c(F)c(F)c(OC)c(F)c2F)ccc1NC(=O)c1cccs1 | – | -22.9 | –
COc1cccc(CNC(=O)C2CC(=O)N(C3CCCCCCC3)C2)c1 (stereo not drawn) | 6.51 µM [rising, single point] | 7.91 | –
CCCCN(C(=O)c1ccc(C)cc1)c1c(N)n(CCC)c(=O)[nH]c1=O | – | 13.7 | –
O=C(CCC(=O)OCC(=O)c1ccc(-c2ccccc2)cc1)Nc1cccc2cccnc12 | – | -3.07 | –
O=C(COC(=O)c1ccc2c(c1)OCO2)Nc1ccccc1Cl | 29.1 µM [falling, single point] | -5.51 | –
COc1ccccc1CNC(=O)c1cc2c(=O)[nH]c3ccccc3c2n1C | 16.4 µM [falling, single point] | -35.3 | 0.00651 µM [falling, full curve, poor fit]
Cc1ccc2c(CC(=O)N3CCc4ccccc43)coc2c1 | – | 26.7 | 0.206 µM [rising, full curve, poor fit]
CC(C)c1ccccc1NC(=S)NC1CCCCC1 | 5.01 µM [rising, full curve, poor fit] | 17.9 | –
CCCN(CC(=O)Nc1ccc(F)c(F)c1F)C(=O)c1ccc(N2CCCC2=O)cc1 | – | 38.4 | 16.4 µM [rising, partial curve, poor fit]
Cc1ccc(S(=O)(=O)NC2CC(C)(C)NC(C)(C)C2)cc1 | 25.9 µM [rising, partial curve] | 7.43 | –
COc1ccc(OC)c(NC(=O)CSc2nc3c(c(=O)n(C)c(=O)n3C)n2C)c1 | 0.206 µM [rising, full curve] | 26 | –
Cc1ccc(NC(=O)Cn2c(CCC(=O)O)ccc2-c2cccs2)cc1Cl | – | 5.2 | 0.146 µM [falling, full curve, poor fit]
CC(=O)N1CC=C2C(C#N)=C(N)C(C#N)(C#N)C(CCc3ccccc3)C2C1 (stereo not drawn) | – | 1.51 | –
COc1ccc(OC)c2c1sc(=NC(=O)c1ccco1)n2C | 0.116 µM [falling, full curve, poor fit] | -12.2 | –

SMILES | AC50 [1] | cell number change [%] | AC50 [2]
Cc1nc([N+](=O)[O-])c(Br)n1CC(=O)c1ccc(Cl)cc1 | 0.82 µM [rising, full curve, poor fit] | – | 1.64 µM [rising, partial curve, poor fit]
O=C(Nc1nnc(C2CC2)s1)C1CC(=O)N(c2ccc3c(c2)OCCO3)C1 (stereo not drawn) | – | 14.1 | –
COc1ccc(/C=C/C(=O)OCC(=O)Nc2cc(C(N)=O)cc(C(N)=O)c2)cc1 | – | 19.7 | –
O=C(CCNC(=O)c1ccc(Br)cc1)NCC1CCCO1 (stereo not drawn) | 29.1 µM [falling, partial curve] | 1.95 | –
O=C(CCN1C(=O)/C(=C/c2ccc(F)cc2)SC1=S)NNC(=O)c1cccnc1 | 6.51 µM [rising, single point] | 1.23 | –
CCOC(=O)CSc1nc(N)c2c3c(sc2n1)CCCC3 | 18.4 µM [falling, partial curve] | 18.1 | 0.00461 µM [rising, full curve, poor fit]
COc1ccc(N(CC(=O)NCc2ccc(Cl)cc2)S(=O)(=O)c2c(C)nn(C)c2C)cc1 | – | -10.3 | 6.51 µM [falling, partial curve, poor fit]
Cc1nc(COC(=O)c2cc(O)c3ccccc3c2O)cs1 | 1.03 µM [falling, single point] | -11 | 0.58 µM [falling, single point]
CN(C)CCNc1nc(-c2ccccc2)nnc1C(F)(F)F | 8.2 µM [rising, partial curve, poor fit] | 23.7 | –
O=[N+]([O-])c1ccc(/C=N/Nc2ccc3ccccc3c2)o1 | 11.6 µM [falling, partial curve] | 41.2 | 4.61 µM [rising, partial curve]
Cc1oc2c(c1C(=O)Nc1cccc(C(=O)O)c1)CCCC2 | 0.206 µM [falling, full curve, poor fit] | -27.3 | 4.11 µM [falling, full curve, poor fit]
CCOC(=O)c1c(C)c(C(=O)Nc2cc(OC)ccc2OC)c(C)n1CC | 9.2 µM [rising, partial curve, poor fit] | -18.1 | –
O=C(CCNC(=O)c1ccc(Br)cc1)NCCCc1ccccc1 | – | 93.6 | 16.4 µM [rising, partial curve]
FC(F)(F)c1nc(Oc2ccccc2)c2ccccc2n1 | – | – | 0.411 µM [falling, single point]
O=C(CSc1ncn[nH]1)Nc1ccnc2ccccc12 | – | 4.79 | –
Cc1nn2c(=O)cc(CSCC(=O)Nc3ccccc3F)nc2s1 | 29.1 µM [rising, single point] | -2.47 | –
COc1ccc(C(=O)OCC(=O)NC(=O)NC2CCCC2)c(OC)c1 | 6.51 µM [rising, partial curve] | 8.21 | 6.51 µM [rising, partial curve, poor fit]
CCN(CC(=O)Nc1ccccc1C(=O)NC1CC1)Cc1cccs1 | – | 25 | 6.51 µM [rising, single point]
O=C(CN(Cc1ccccc1)S(=O)(=O)c1ccccc1)N/N=C/c1ccccc1[N+](=O)[O-] | 0.411 µM [rising, partial curve, poor fit] | -26.8 | –

Part of the list above, as tab-separated lines:
SMILES	AC50 [1]	cell number change [%]	AC50 [2]
Cc1nc([N+](=O)[O-])c(Br)n1CC(=O)c1ccc(Cl)cc1	0.82 µM [rising, full curve, poor fit]	–	1.64 µM [rising, partial curve, poor fit]
O=C(Nc1nnc(C2CC2)s1)C1CC(=O)N(c2ccc3c(c2)OCCO3)C1 (stereo not drawn)	–	14.1	–
COc1ccc(/C=C/C(=O)OCC(=O)Nc2cc(C(N)=O)cc(C(N)=O)c2)cc1	–	19.7	–
O=C(CCNC(=O)c1ccc(Br)cc1)NCC1CCCO1 (stereo not drawn)	29.1 µM [falling, partial curve]	1.95	–
CCOC(=O)CSc1nc(N)c2c3c(sc2n1)CCCC3	18.4 µM [falling, partial curve]	18.1	0.00461 µM [rising, full curve, poor fit]
COc1ccc(N(CC(=O)NCc2ccc(Cl)cc2)S(=O)(=O)c2c(C)nn(C)c2C)cc1	–	-10.3	6.51 µM [falling, partial curve, poor fit]
Cc1nc(COC(=O)c2cc(O)c3ccccc3c2O)cs1	1.03 µM [falling, single point]	-11	0.58 µM [falling, single point]
CN(C)CCNc1nc(-c2ccccc2)nnc1C(F)(F)F	8.2 µM [rising, partial curve, poor fit]	23.7	–
O=[N+]([O-])c1ccc(/C=N/Nc2ccc3ccccc3c2)o1	11.6 µM [falling, partial curve]	41.2	4.61 µM [rising, partial curve]
CCOC(=O)c1c(C)c(C(=O)Nc2cc(OC)ccc2OC)c(C)n1CC	9.2 µM [rising, partial curve, poor fit]	-18.1	–
O=C(CSc1ncn[nH]1)Nc1ccnc2ccccc12	–	4.79	–
CCN(CC(=O)Nc1ccccc1C(=O)NC1CC1)Cc1cccs1	–	25	6.51 µM [rising, single point]
